Among the data in paper doi:10.1101/2022.01.17.476632 are binding values, retold here.

Amino acid sequences for entries named in this document (tags omitted).
UniProt Q9Y243: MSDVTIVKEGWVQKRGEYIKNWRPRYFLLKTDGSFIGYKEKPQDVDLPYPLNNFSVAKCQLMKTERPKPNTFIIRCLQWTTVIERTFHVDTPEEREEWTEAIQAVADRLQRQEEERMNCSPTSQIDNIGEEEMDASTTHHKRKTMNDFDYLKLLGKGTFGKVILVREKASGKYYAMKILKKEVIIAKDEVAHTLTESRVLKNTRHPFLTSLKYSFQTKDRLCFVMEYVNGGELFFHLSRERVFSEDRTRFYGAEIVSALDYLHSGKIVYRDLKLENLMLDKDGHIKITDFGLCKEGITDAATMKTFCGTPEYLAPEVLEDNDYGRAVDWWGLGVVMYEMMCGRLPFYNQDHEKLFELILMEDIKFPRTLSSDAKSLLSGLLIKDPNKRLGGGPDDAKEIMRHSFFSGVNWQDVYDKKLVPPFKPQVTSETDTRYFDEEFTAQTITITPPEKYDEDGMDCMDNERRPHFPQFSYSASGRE

The experiment deals with T1, TANK-binding kinase 1 (TBK1) (human (endogenous in MDA-MB-231)) (UniProt Q9UHD2).
T1 sequence: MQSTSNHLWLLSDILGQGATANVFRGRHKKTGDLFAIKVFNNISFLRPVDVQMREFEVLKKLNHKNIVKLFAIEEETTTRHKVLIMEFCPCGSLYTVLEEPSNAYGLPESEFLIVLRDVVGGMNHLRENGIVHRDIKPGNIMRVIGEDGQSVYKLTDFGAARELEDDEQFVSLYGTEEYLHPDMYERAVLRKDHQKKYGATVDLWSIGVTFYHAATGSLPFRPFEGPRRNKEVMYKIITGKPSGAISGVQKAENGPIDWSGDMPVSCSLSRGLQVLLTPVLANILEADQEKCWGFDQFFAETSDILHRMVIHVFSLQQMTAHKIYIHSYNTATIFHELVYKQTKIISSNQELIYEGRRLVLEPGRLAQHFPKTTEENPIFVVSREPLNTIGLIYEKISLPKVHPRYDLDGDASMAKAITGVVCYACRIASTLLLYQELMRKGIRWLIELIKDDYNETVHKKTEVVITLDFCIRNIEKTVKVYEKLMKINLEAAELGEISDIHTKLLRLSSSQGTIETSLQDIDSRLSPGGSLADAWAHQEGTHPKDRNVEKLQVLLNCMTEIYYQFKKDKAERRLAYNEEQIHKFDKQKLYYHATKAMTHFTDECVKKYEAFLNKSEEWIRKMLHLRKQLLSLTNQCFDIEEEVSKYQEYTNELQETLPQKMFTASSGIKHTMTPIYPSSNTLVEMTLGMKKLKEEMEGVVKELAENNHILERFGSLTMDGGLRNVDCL
Nature of the experiment: co-IP.

These are yes or no findings as the source states them, for the method shown. In cells and extracts the contact can be indirect. Some results given as binding are weak or reduced against the parent protein; the word gives no strength.

As for “AKT3 (from UniProt Q9Y243 1-479) (enzyme)”, the binding result is given as “binds”.
